Data reported in patent US12357965B2, “Supramolecular filamentous assemblies for protein purification” (The Johns Hopkins University, priority 2017, dated 2025).
Some results were stated once for a whole list of compounds, not compound by compound.

Assay: Critical micelle concentration (CMC) measurement with Nile Red
Assay type: physicochemical
Conditions: deionized water
Experimental: CMC Measurement. […] The stock solution of Nile Red was initially prepared by dissolving the dye in acetone at 50 μM. 10 μL stock solution was loaded into several centrifuge tubes, where the solvent evaporates under room temperature to yield the dry mass of Nile Red. Various concentrations of the peptide solutions were prepared in deionized water, and then identical volume was added into the centrifuge tubes containing dry Nile Red and aged overnight. Fluorescent spectra of Nile Red were then monitored by a Fluorolog fluorometer (Jobin Yvon, Edison, NJ) with fixed excitation wavelength at 560 nm; emission spectra were monitored 580-720 nm. The CMC of IAs is determined by a blue-shift of the emission maximum, whereas this transition occurs as the incubated peptides exceed their CMC values.
To deeply understand the differences between single-chain and double-chain alkylated IAs with fragmented antibody binding peptides, further studies on CMC and secondary structures were conducted. The critical micelle concentration (CMC) values for various IAs were measured using Nile Red, a lipophilic dye that fluoresces depending on solvent polarity. Intensive fluorescence upon exposure to hydrophobic environments can be strongly quenched and red-shifted in aqueous media. […]

Substance | CMC [µM]
C8H15O- PNLNEEQRNAKIKSIRDD (SEQ ID NO: 5) (N-terminal C8 acyl) [C8-Helix2] | > 100
FNMQQQRRFYEALHDK (SEQ ID NO: 3)-C8H15O (C-terminal C8 acyl) [Helix1-C8] | > 100
